PubChem BioAssay AID652243 – Drosophila RNAi Screening Center | 2013
The screen tested about 24,000 reagents; shown is a random part of those with a known target gene and a result. In the full data, 246 (1%) got an active call. 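Plates not normalised; calls are printed but the firefly/Renilla ratio behind them is not deposited; fold cut for lowering reported inconsistently.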 Raw values are not corrected between plates. Not stated in the record: the amount of reagent.

- Aim: 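Fly genes required for human androgen receptor driven transcription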 (primary screen)
- Cells: Drosophila S2R+ cells
- Reagent: long dsRNA against Drosophila genes
- Time to read-out: 72 h (48 h, then 24 h hormone)
- Challenge: synthetic androgen R1881 at 10 nM for 24 h
- Detection: 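Per-well raw luminescence of the androgen-driven firefly reporter and of the Renilla control, two replicates each, without normalisation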
- Direction: firefly reporter light: higher = more light from androgen-responsive reporter; Renilla control light: higher = more constitutive control signal (cell number, transfection)
- Hit rule: 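Across duplicate plates, a knock-down whose log firefly/Renilla ratio shifted a set fold down or up from the GFP/LacZ control mean was a hit; the downward cut appears as both 1.5 and 3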
- Meaning of the calls: active = hit: reporter lowered or raised; inactive = no hit

gene knocked down,DRSC id,"firefly reporter light, replicate 1","firefly reporter light, replicate 2","Renilla control light, replicate 1","Renilla control light, replicate 2",activity call
CG13482,DRSC10024,7.93e5,6.63e5,9.38e5,1.24e6,inactive
CG13482,DRSC23975,9.50e5,1.35e6,1.01e6,1.09e6,inactive
Or43a,DRSC07485,3.67e5,3.09e5,2.59e6,1.71e6,inactive
CG15118,DRSC06540,8.23e5,8.85e5,1.20e6,1.02e6,inactive
CG13810,DRSC08344,2.00e5,2.26e5,2.87e6,2.58e6,inactive
CG13810,DRSC22838,4.64e5,9.46e5,1.19e6,1.62e6,inactive
CG13810,DRSC27859,7.44e5,5.83e5,2.33e6,1.35e6,inactive
SAK,DRSC11879,2.50e5,1.05e5,2.62e6,1.48e6,inactive
SAK,DRSC23329,6.57e5,6.97e5,9.05e5,7.42e5,inactive
SAK,DRSC29461,4.64e5,4.36e5,9.29e5,9.29e5,inactive
Lrt,DRSC06045,1.11e5,1.39e5,1.48e6,2.22e6,inactive
Lrt,DRSC27086,2.58e5,2.35e5,6.29e5,5.39e5,inactive
Tak1,DRSC20390,8.96e5,5.56e5,1.30e6,9.51e5,inactive
Tak1,DRSC20561,1.27e5,81095,4.58e5,2.88e5,inactive
Tak1,DRSC20562,2.30e5,1.42e5,6.38e5,3.91e5,inactive
aspr,DRSC20689,2.67e5,2.11e5,6.24e5,5.34e5,inactive
aspr,DRSC20690,1.32e5,1.16e5,4.40e5,4.11e5,inactive
CG10700,DRSC02096,1.39e5,1.50e5,1.33e6,1.70e6,inactive
CG16813,DRSC24977,8.31e5,8.68e5,8.84e5,9.43e5,inactive
Fmr1,DRSC16674,1.21e5,1.07e5,2.38e6,2.49e6,inactive
Fmr1,DRSC26781,2.78e5,3.12e5,5.66e5,5.94e5,inactive
CG13051,DRSC09932,3.28e5,2.89e5,2.87e6,2.41e6,inactive
CG1142,DRSC12531,1.62e5,1.68e5,3.31e6,2.60e6,inactive
CG1142,DRSC27795,2.12e5,1.62e5,3.64e5,6.43e5,inactive
CG15356,DRSC00386,79996,1.21e5,5.07e5,7.16e5,inactive
SmydA-4,DRSC19390,2.54e5,1.96e5,1.76e6,1.87e6,inactive
SmydA-4,DRSC21866,7.73e5,7.49e5,1.70e6,1.95e6,inactive
SmydA-4,DRSC26517,2.67e5,3.49e5,6.14e5,6.16e5,inactive
Tcs5,DRSC09774,1.29e5,96986,1.45e6,1.66e6,inactive
Muc68D,DRSC10569,1.20e6,1.50e6,1.18e6,2.70e6,inactive
CG12605,DRSC08286,1.11e5,1.58e5,7.19e5,1.74e6,inactive
CG12605,DRSC28756,8.54e5,6.59e5,1.63e6,1.76e6,inactive
CG12605,DRSC39045,1.10e6,7.96e5,2.18e6,2.13e6,inactive
wmd,DRSC04436,7.05e5,6.22e5,1.23e6,1.26e6,inactive
wmd,DRSC29254,8.76e5,6.81e5,1.42e6,1.24e6,inactive
Fem-1,DRSC07322,78047,74296,9.68e5,7.28e5,inactive
Fem-1,DRSC27014,6.54e5,4.48e5,7.44e5,3.54e5,inactive
CG42826,DRSC10682,1.94e5,1.26e5,1.78e6,1.66e6,inactive
Sox15,DRSC07555,38187,69150,7.77e5,7.77e5,inactive
Sox15,DRSC28528,3.13e5,6.00e5,9.94e5,1.34e6,inactive
